These results are taken from patent publication US10441669B2, “Multifunctional chelators, complexes, and compositions thereof, and methods of using same” (ILLINOIS INSTITUTE OF TECHNOLOGY, priority 2013, dated 2019).

Molecules are shown by their SMILES. Read-outs that look alike come from different tables or passages of the source.

Data set [1] is described as follows: Radiolabeling of pyridyl-containing chelators with 64Cu. Type of data set: physicochemical. Particulars: RT.
A short description of data set [2]: Y-90 labeling efficiency (head of Table 11) of pyridyl-based chelator. The data set is classed as physicochemical. Particulars: Y-90, RT.
Data set [3] in a line: Radiolabeling efficiency of bimodal chelators with 177Lu. The data set is classed as physicochemical. Particulars: pH 5.5, RT, ITLC.
The nature of data set [4]: Radiolabeling efficiency of bimodal chelators with 90Y. The following applies: pH 5.5, RT, ITLC. Type of data set: physicochemical.
The conditions of data set [5]: 177Lu, pH 5.5, RT, data cited for comparison, cited from earlier work.

`NCCCNC(=O)c1ccc(CN2CCN(CC(=O)O)CCN(CC(=O)O)CC2)nc1` [Chelator 13]: the “Labeling Efficiency (%)” value was 100 ± 0.07% in data set [1] (pH 5.5, 1 min); 100 ± 0.0% in data set [1] (pH 5.5, 10 min); 100 ± 0.0% in data set [1] (pH 5.5, 30 min). Also, the “Y-90 labeling efficiency (%)” value in data set [2] (pH 5.5, 1 min) was found to be 11.3 ± 0.49%; in data set [2] (pH 5.5, 5 min) it was 53.4 ± 0.21%; in data set [2] (pH 5.5, 30 min), 82.1 ± 0.07%; in data set [2] (pH 5.5, 60 min), 92.6 ± 0.78%.
Regarding `O=C(O)CN1CCN(CCN(CC(=O)O)CC(=O)O)CCN(CC(CCCc2ccc([N+](=O)[O-])cc2)N(CC(=O)O)CC(=O)O)CC1` (stereo not shown) [Chelator 1], the “Radiolabeling efficiency (%)” value in data set [3] (1 min) came out at 97.4 ± 0.10%; in data set [3] (10 min), 98.6 ± 0.10%; in data set [3] (20 min), 99.3 ± 0.10%; in data set [3] (30 min) it was 99.4 ± 0.10%; in data set [3] (60 min), 99.5 ± 0.06%; in data set [4] (1 min) it was 97.0 ± 1.0%. Also, the “Radiolabeling efficiency (%)” value in data set [4] (10 min) is listed as 99.0 ± 0.4%; in data set [4] (20 min) it was 99.7 ± 0.1%; in data set [4] (30 min), 99.7 ± 0.06%; in data set [4] (60 min), 99.8 ± 0.2%.
For `O=C(O)CN1CCN(CC(=O)O)CCN(CC(CCCc2ccc([N+](=O)[O-])cc2)N(CC(=O)O)CC(=O)O)CC1` (stereo not shown) [Chelator 3p-C-NETA], the “Radiolabeling efficiency (%)” value in data set [5] (1 min), in data set [5] (10 min), in data set [5] (20 min), in data set [5] (30 min) and in data set [5] (60 min) was 100.0 ± 0.0% in each case.
